PubChem BioAssay AID652243, Drosophila RNAi Screening Center – 2013

- Test: 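Fly regulators of androgen-dependent reporter output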 (primary screen)
- Cell system: Drosophila S2R+ cells
- Knock-down reagent: long dsRNA against Drosophila genes
- Time to read-out: 72 h (48 h, then 24 h hormone)
- Conditions: synthetic androgen R1881 at 10 nM for 24 h
- Measurement: 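Per-well raw luminescence of the androgen-driven firefly reporter and of the Renilla control, two replicates each, without normalisation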
- Scale: firefly reporter light: higher = more light from androgen-responsive reporter; Renilla control light: higher = more constitutive control signal (cell number, transfection)
- Call rule: 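Hit when the log firefly-to-Renilla ratio dropped or increased by a fixed fold versus the mean of GFP or LacZ controls across duplicate plates; lowering cut given as 1.5 and as 3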
- Calls: active = hit: reporter lowered or raised; inactive = no hit
In all, the deposit lists about 24,000 reagents; this is a random part of those that have a named target and a result. Of all reagents, 246 (1%) were called active. 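Plates not normalised; calls are printed but the firefly/Renilla ratio behind them is not deposited; fold cut for lowering reported inconsistently.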 The raw values are shown without normalisation. The record does not give: the amount of reagent.

wds [DRSC18852] — firefly reporter light, replicate 1 = 2.65e5; firefly reporter light, replicate 2 = 4.01e5; Renilla control light, replicate 1 = 2.13e6; Renilla control light, replicate 2 = 2.63e6; Outcome = inactive
CG33109 [DRSC16533] — firefly reporter light, replicate 1 = 1.43e5; firefly reporter light, replicate 2 = 1.60e5; Renilla control light, replicate 1 = 1.76e6; Renilla control light, replicate 2 = 2.04e6; Outcome = inactive
Tsp42A [DRSC04862] — firefly reporter light, replicate 1 = 2.70e5; firefly reporter light, replicate 2 = 2.79e5; Renilla control light, replicate 1 = 2.39e6; Renilla control light, replicate 2 = 2.12e6; Outcome = inactive
CG41099 [DRSC38767] — firefly reporter light, replicate 1 = 1.22e6; firefly reporter light, replicate 2 = 1.00e6; Renilla control light, replicate 1 = 2.64e6; Renilla control light, replicate 2 = 1.89e6; Outcome = inactive
CG14451 [DRSC11708] — firefly reporter light, replicate 1 = 2.81e5; firefly reporter light, replicate 2 = 2.07e5; Renilla control light, replicate 1 = 2.60e6; Renilla control light, replicate 2 = 2.74e6; Outcome = inactive
CG14451 [DRSC26512] — firefly reporter light, replicate 1 = 3.13e5; firefly reporter light, replicate 2 = 3.36e5; Renilla control light, replicate 1 = 8.08e5; Renilla control light, replicate 2 = 7.74e5; Outcome = inactive
CG11149 [DRSC02130] — firefly reporter light, replicate 1 = 1.07e5; firefly reporter light, replicate 2 = 1.93e5; Renilla control light, replicate 1 = 7.99e5; Renilla control light, replicate 2 = 7.24e5; Outcome = inactive
CG14689 [DRSC14912] — firefly reporter light, replicate 1 = 1.56e5; firefly reporter light, replicate 2 = 2.05e5; Renilla control light, replicate 1 = 2.87e6; Renilla control light, replicate 2 = 2.79e6; Outcome = inactive
CG14689 [DRSC28117] — firefly reporter light, replicate 1 = 5.92e5; firefly reporter light, replicate 2 = 4.58e5; Renilla control light, replicate 1 = 1.85e6; Renilla control light, replicate 2 = 1.36e6; Outcome = inactive
Mau2 [DRSC15550] — firefly reporter light, replicate 1 = 1.06e5; firefly reporter light, replicate 2 = 1.01e5; Renilla control light, replicate 1 = 6.22e5; Renilla control light, replicate 2 = 8.19e5; Outcome = inactive
CG10063 [DRSC09688] — firefly reporter light, replicate 1 = 1.20e5; firefly reporter light, replicate 2 = 1.29e5; Renilla control light, replicate 1 = 1.80e6; Renilla control light, replicate 2 = 2.10e6; Outcome = inactive
CG10063 [DRSC28872] — firefly reporter light, replicate 1 = 4.40e5; firefly reporter light, replicate 2 = 5.27e5; Renilla control light, replicate 1 = 1.14e6; Renilla control light, replicate 2 = 9.92e5; Outcome = inactive
CG12121 [DRSC17816] — firefly reporter light, replicate 1 = 2.28e5; firefly reporter light, replicate 2 = 3.36e5; Renilla control light, replicate 1 = 2.53e6; Renilla control light, replicate 2 = 2.68e6; Outcome = inactive
ImpE3 [DRSC16716] — firefly reporter light, replicate 1 = 61361; firefly reporter light, replicate 2 = 71212; Renilla control light, replicate 1 = 1.94e6; Renilla control light, replicate 2 = 2.06e6; Outcome = inactive
CR42545 [DRSC03709] — firefly reporter light, replicate 1 = 2.84e5; firefly reporter light, replicate 2 = 2.96e5; Renilla control light, replicate 1 = 1.53e6; Renilla control light, replicate 2 = 2.40e6; Outcome = inactive
CG32683 [DRSC17990] — firefly reporter light, replicate 1 = 4.38e5; firefly reporter light, replicate 2 = 2.98e5; Renilla control light, replicate 1 = 3.08e6; Renilla control light, replicate 2 = 2.87e6; Outcome = inactive
CG32683 [DRSC18232] — firefly reporter light, replicate 1 = 6.14e5; firefly reporter light, replicate 2 = 4.94e5; Renilla control light, replicate 1 = 2.69e6; Renilla control light, replicate 2 = 3.96e6; Outcome = inactive
CG32683 [DRSC18233] — firefly reporter light, replicate 1 = 6.69e5; firefly reporter light, replicate 2 = 4.02e5; Renilla control light, replicate 1 = 6.03e6; Renilla control light, replicate 2 = 2.45e6; Outcome = inactive
CG32683 [DRSC29475] — firefly reporter light, replicate 1 = 6.66e5; firefly reporter light, replicate 2 = 8.23e5; Renilla control light, replicate 1 = 1.20e6; Renilla control light, replicate 2 = 1.20e6; Outcome = inactive
CG8671 [DRSC03102] — firefly reporter light, replicate 1 = 1.17e5; firefly reporter light, replicate 2 = 1.07e5; Renilla control light, replicate 1 = 7.25e5; Renilla control light, replicate 2 = 6.09e5; Outcome = inactive
CG8671 [DRSC03103] — firefly reporter light, replicate 1 = 1.02e5; firefly reporter light, replicate 2 = 81129; Renilla control light, replicate 1 = 9.31e5; Renilla control light, replicate 2 = 5.18e5; Outcome = inactive
CG8671 [DRSC27179] — firefly reporter light, replicate 1 = 3.96e5; firefly reporter light, replicate 2 = 2.99e5; Renilla control light, replicate 1 = 6.79e5; Renilla control light, replicate 2 = 6.12e5; Outcome = inactive
